# Measurements as given in PubChem BioAssay AID485314 (National Center for Advancing Translational Sciences (NCATS), 2010).
# Hit rate of the full screen: of about 340,000 compounds, about 4,500 (1.3%) were called active. The inconclusive results got no clear call from the source; some entries with a clear call stand among them for comparison. Calls follow the shape of the dose curve; as a rule, active = well fitted inhibition curve with a large enough effect; inconclusive = small, poorly fitted or top-dose-only effect, or another doubt; inactive = no such curve, though single readings can be large or run the other way. A potency beside an inconclusive call is a rough fit, not a confirmed value.
# Biological target: DNA polymerase beta (Homo sapiens) (UniProt P06746)
# Assay: qHTS Assay for Inhibitors of DNA Polymerase Beta
# Conditions: Pol beta primer extension/strand displacement, fluorescence kinetic; activity change, negative = inhibition: at 114 µM (top of the series)
# In short: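 10 nM enzyme + cpd, 15 min RT; start with substrate 50 nM final; read 0 min and after 10 min RT. Corrected, normalized data; 4-parameter Hill curve fit.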
# % is scaled to controls: 0 for no effect and ±100 for the full control effect; potency is read from the fitted curve at half-maximal effect.
Compound,Potency,"activity change, negative = inhibition"
Cc1ccc(-c2nnc(SCC(=O)Nc3sc(C)c(C)c3C#N)n2C)cc1,active: 22.4 µM,
CCc1ccccc1NC(=O)c1cc2ncc(Br)cn2n1,"inconclusive: 11.2 µM [inhibitor, full curve, poor fit]",
CCC(O)c1cc2c(cc1NC(=O)c1cccc(Br)c1)OCCO2 (centres undefined),"inconclusive: 79.4 µM [inhibitor, single point]",
COc1ccc(-n2c(COc3ccc(C)cc3)nnc2SCc2ccc(C#N)cc2)cc1,"inconclusive: 0.158 µM [inhibitor, full curve, poor fit]",
Cc1c(Cl)cc(-n2cnnn2)cc1[N+](=O)[O-],inactive,
O=C(O)CSCC(=O)Nc1ccc(-c2nc3ccccc3s2)cc1,"inconclusive: 39.8 µM [inhibitor, single point]",
COc1ccc(NC(=O)C2=Cc3cccc(OC)c3OC2)cc1,"inconclusive: 0.282 µM [inhibitor, full curve, poor fit]",
CCN(CC)S(=O)(=O)c1ccc(C(=O)Nc2nc3c(Cl)cc(Cl)cc3s2)cc1,inactive,
CCOC(=O)c1ccc[n+](CC(=O)Nc2ccccc2OC(F)F)c1,"inconclusive: 89.1 µM [inhibitor, single point]",
N#Cc1c(NC(=O)CSc2nc(N)cc(=O)[nH]2)sc2c1CCCCCC2,"inconclusive: 35.5 µM [inhibitor, partial curve]",
Cc1nnc(SCC(=O)N/N=C/c2ccc(-c3ccc(C)c(Cl)c3)o2)s1,"inconclusive: 44.7 µM [inhibitor, partial curve]",
CCOC(=O)CNC(=O)N1CCc2cc(S(=O)(=O)N3CCC(C)CC3)ccc21,inactive,
O=C(CC1SC(=O)NC1=O)Oc1ccc(/C=N/NC(=O)c2ccccc2O)cc1 (centres undefined),"inconclusive: 63.1 µM [inhibitor, single point]",
COc1ccc([N+](=O)[O-])cc1NS(=O)(=O)c1cc(C(=O)O)ccc1OC,"inconclusive: 79.4 µM [inhibitor, single point]",
CCOc1cccc2cc(-c3nc4ccc(C(=O)O)cc4[nH]3)c(=O)oc12,"inconclusive: 25.1 µM [inhibitor, full curve]",
O=C(Cn1cnc([N+](=O)[O-])n1)c1ccc(O)c(O)c1,"inconclusive: 1.78 µM [inhibitor, full curve, poor fit]",
O=C(NC(=S)NNC(=O)c1cccs1)c1ccc(Br)o1,"inconclusive: 89.1 µM [inhibitor, single point]",
CSc1cccc(NC(=O)c2cc(S(=O)(=O)N3CCCC3)cn2C)c1,"inconclusive: 14.1 µM [inhibitor, partial curve, poor fit]",
O=C(Nc1cccc(C(=O)O)c1)/C(=C\c1ccco1)NC(=O)c1ccccc1,inactive,
Cc1csc2nc(COc3ccccc3NC(=O)c3ccco3)cc(=O)n12,inactive,
Cc1ccc(CNC(=O)c2cc3c(C)nc4ccccc4c3o2)cc1,"inconclusive: 15.8 µM [inhibitor, full curve, poor fit]",
Cc1cc(Nc2cccc(C)c2C)n2cnnc2n1,inactive,

Compound,Potency,"activity change, negative = inhibition"
CC(C)OC(=O)c1cccnc1SCc1cc(=O)n2ccccc2n1,"inconclusive: 0.708 µM [inhibitor, full curve, poor fit]",
O=C(NC(=S)Nc1cc([N+](=O)[O-])ccc1O)c1cccnc1,"inconclusive: 89.1 µM [inhibitor, single point]",
CCc1nnc(SCc2nc(-c3ccc(OC)c(OC)c3)oc2C)c2cc3sc(C)cc3n12,inactive,
Cc1ccc(/C=C/c2onc(C)c2S(=O)(=O)N2CCC(C(=O)NCc3ccc(C)o3)CC2)cc1,inactive,
O=C(N/N=C/c1cc(Br)c(Br)o1)c1cc2ccccc2o1,,inconclusive: -87.6% [inhibitor]
Cc1ccc(-n2cccc2/C=C2\C(=N)N3N=C(C(C)C)SC3=NC2=O)cc1,active: 28.2 µM,
COc1cccc(C(=O)NC(=S)Nc2ccc(N3CCCC3)cc2)c1,inactive,
COc1ccc(Nc2ncc(C(=O)N3CCN(c4cccc(Cl)c4)CC3)c3ccccc23)cc1,"inconclusive: 2.82 µM [inhibitor, full curve, poor fit]",
Cc1ccc(C)c(-n2c(CCC(=O)O)ccc2-c2ccc(Cl)cc2)c1,active: 7.94 µM,
COc1ccccc1-n1c(SCC(=O)NC2CCCC2)nc2cccnc21,"inconclusive: 0.316 µM [inhibitor, full curve]",
Cc1ccc(CSCc2ccc(C(=O)NCCc3ccc(Cl)cc3)o2)cc1,inactive,
Cc1ccc(-n2ncc(C#N)c2/N=C/N2CCOCC2)cc1,"inconclusive: 89.1 µM [inhibitor, single point]",
Cc1cccc(Cn2cnc3c(nnn3Cc3ccc(F)cc3)c2=O)c1,"inconclusive: 79.4 µM [inhibitor, single point]",
NC(=O)COC(=O)c1c2c(nc3ccccc13)CCC2,"inconclusive: 28.2 µM [inhibitor, full curve]",
Cc1cccc(C)c1NC(=O)Cn1nc(-c2ccc(Cl)s2)ccc1=O,"inconclusive: 31.6 µM [inhibitor, full curve]",
CC(NC(=O)Cn1ncc(Cl)c(Cl)c1=O)C12CC3CC(CC(C3)C1)C2 (centres undefined),"inconclusive: 3.16 µM [inhibitor, full curve]",
O=C(CCCN1C(=O)/C(=C\c2cccs2)SC1=S)NNC(=O)c1cccnc1,"inconclusive: 44.7 µM [inhibitor, partial curve, poor fit]",
Cc1nn(CC(=O)c2ccc(Cl)cc2Cl)c(C)[n+]1N,"inconclusive: 89.1 µM [inhibitor, single point]",
COC(=O)c1c(SCC(=O)Nc2cc(C)cc(C)c2)[nH]c2ccccc2c1=O,"inconclusive: 10 µM [inhibitor, full curve]",
CCn1c(C2CCN(Cc3ccccc3)CC2)n[nH]c1=S,"inconclusive: 28.2 µM [inhibitor, partial curve, poor fit]",
O=C(O)C1Nc2c(O)cccc2C2C=CCC12 (centres undefined),active: 1.58 µM,
O=C1C(Nc2ccc(O)cc2)=C/C(=N/S(=O)(=O)c2cccs2)c2ccccc21,inactive,

# Taken from above:
# Entry for Cc1ccc(/C=C/c2onc(C)c2S(=O)(=O)N2CCC(C(=O)NCc3ccc(C)o3)CC2)cc1 under Potency: inactive
# Entry for CCc1nnc(SCc2nc(-c3ccc(OC)c(OC)c3)oc2C)c2cc3sc(C)cc3n12 under Potency: inactive
